Measured values published in paper PMC11269669.

Sequences of proteins named here, by UniProt entry; tags and fusion partners are left off. A change or cut given only in a name is not applied to a line headed by its entry.
UniProt Q14498: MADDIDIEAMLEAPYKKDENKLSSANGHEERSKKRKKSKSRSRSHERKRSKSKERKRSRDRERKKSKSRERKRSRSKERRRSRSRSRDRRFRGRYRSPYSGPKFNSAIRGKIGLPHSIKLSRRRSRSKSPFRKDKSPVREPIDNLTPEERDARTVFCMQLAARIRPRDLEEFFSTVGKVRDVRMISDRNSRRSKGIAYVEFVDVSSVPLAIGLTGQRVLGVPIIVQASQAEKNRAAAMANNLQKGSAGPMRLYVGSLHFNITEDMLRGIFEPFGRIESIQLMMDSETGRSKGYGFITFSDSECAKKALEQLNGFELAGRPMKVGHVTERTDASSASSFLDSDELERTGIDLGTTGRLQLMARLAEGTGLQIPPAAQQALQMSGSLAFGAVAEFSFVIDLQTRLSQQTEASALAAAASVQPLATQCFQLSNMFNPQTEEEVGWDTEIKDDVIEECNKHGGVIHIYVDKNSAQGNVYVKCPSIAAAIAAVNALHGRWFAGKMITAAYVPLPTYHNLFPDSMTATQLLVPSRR

Target: His-RBM39-ΔRRM1 (His-tagged RBM39 with the RRM1 domain deleted) (UniProt Q14498)
Assay: co-IP; His-vector, His-full-length and domain-deleted RBM39 plasmids transfected into HCT116 cells; lysates immunoprecipitated with His antibody, western blot

binding: binds
B1: endogenous MORC2 (Microrchidia family CW-type zinc finger 2) (protein, UniProt Q9Y6X9 1-1032)
chain: MAFTNYSSLNRAQLTFEYLHTNSTTHEFLFGALAELVDNARDADATRIDIYAERREDLRGGFMLCFLDDGAGMDPSDAASVIQFGKSAKRTPESTQIGQYGNGLKSGSMRIGKDFILFTKKEDTMTCLFLSRTFHEEEGIDEVIVPLPTWNARTREPVTDNVEKFAIETELIYKYSPFRTEEEVMTQFMKIPGDSGTLVIIFNLKLMDNGEPELDIISNPRDIQMAETSPEGTKPERRSFRAYAAVLYIDPRMRIFIHGHKVQTKRLSCCLYKPRMYKYTSSRFKTRAEQEVKKAEHVARIAEEKAREAESKARTLEVRLGGDLTRDSRVMLRQVQNRAITLRREADVKKRIKEAKQRALKEPKELNFVFGVNIEHRDLDGMFIYNCSRLIKMYEKVGPQLEGGMACGGVVGVVDVPYLVLEPTHNKQDFADAKEYRHLLRAMGEHLAQYWKDIAIAQRGIIKFWDEFGYLSANWNQPPSSELRYKRRRAMEIPTTIQCDLCLKWRTLPFQLSSVEKDYPDTWVCSMNPDPEQDRCEASEQKQKVPLGTFRKDMKTQEEKQKQLTEKIRQQQEKLEALQKTTPIRSQADLKKLPLEVTTRPSTEEPVRRPQRPRSPPLPAVIRNAPSRPPSLPTPRPASQPRKAPVISSTPKLPALAAREEASTSRLLQPPEAPRKPANTLVKTASRPAPLVQQLSPSLLPNSKSPREVPSPKVIKTPVVKKTESPIKLSPATPSRKRSVAVSDEEEVEEEAERRKERCKRGRFVVKEEKKDSNELSDSAGEEDSADLKRAQKDKGLHVEVRVNREWYTGRVTAVEVGKHVVRWKVKFDYVPTDTTPRDRWVEKGSEDVRLMKPPSPEHQSLDTQQEGGEEEVGPVAQQAIAVAEPSTSECLRIEPDTTALSTNHETIDLLVQILRNCLRYFLPPSFPISKKQLSAMNSDELISFPLKEYFKQYEVGLQNLCNSYQSRADSRAKASEESLRTSERKLRETEEKLQKLRTNIVALLQKVQEDIDINTDDELDAYIEDLITKGD

These are yes or no findings as the source states them, for the method shown. Binding seen in cells or lysates may run through a third protein. Binding can be weak; no strength is given.
